Data reported in PMC4559962.
Changes are numbered by the printed parent chain. No constants are given. Whether binding was seen depends on the method and setting. For some assays here: Binding can be weak; no strength is given. For some assays here: Tags and fused reporters may be left off the sequences shown. Values belong to the binder of their own block, whether it stands above or below them.

Columns and labels:
[1] = biological target: SUMO (Smt3) (S. cerevisiae) [SUMO: Q12306]; test: pull-down; SUMO cross-linked to CNBr-activated Sepharose; purified HA-Wss1 proteins in solution; 150 mM NaCl, 50 mM Tris pH 7.4, 0.1% Triton X-100, 1 hr at 4°C; western blot with α-HA; 10 mg/ml free SUMO or Ub used for competition; both purified
[2] = biological target: SUMO (Smt3) (S. cerevisiae) [SUMO: Q12306]; test: pull-down; SUMO or Ub affinity beads; purified HA-Wss1, His6-Cdc48 and HF-Doa1 mixed, or with HA-Wss1 or HF-Doa1 omitted; western blot; both purified
[3] = biological target: HA-Wss1 N-terminus (truncated HA-Wss1 construct of Figure 5D) (S. cerevisiae); test: pull-down; purified HA-Wss1 (full length or truncated) on anti-HA beads with purified His6-Cdc48, GST-Cdc48 or HF-Doa1 (full length or truncated); western blot; both purified
[4] = biological target: SUMO (Smt3) (S. cerevisiae) [SUMO: Q12306]; test: pull-down; SUMO, SUMO-PA or Ub-PA on CNBr-activated Sepharose; purified HA-Wss1 proteins in solution; as Figure 1B but with 1% Triton X-100 (high stringency buffer); western blot with α-HA; o-phenanthroline (OPA) where indicated; both purified

binding [1]: binds
B1: HA-Wss1 1–188 (N-terminal fragment, containing WLM and SHP) (domain or fragment, UniProt P38838 1-188)
chain: MKTEGIKSPSAKYHDMAGSQRIPHKNPHIQKVAVLQSKPNKEDALNLIKEIAHKVSYLMKENHFKVTNLVEFYPRDQRLLGMNVNHGSKIMLRLRCSTDEFQFLPMECIMGTMLHELTHNLFGPHDKKFYNKLDELIGRQWVIEQRGLYDTFLGNGQRLGGRANLRSNRYPMTGISTNTGIVRKRGKG

binding [2]: binds weakly
B2: his6-Flag (HF)-Doa1 (protein, UniProt P36037 1-715)
chain: MGYQLSATLKGHDQDVRDVVAVDDSKVASVSRDGTVRLWSKDDQWLGTVVYTGQGFLNSVCYDSEKELLLFGGKDTMINGVPLFATSGEDPLYTLIGHQGNVCSLSFQDGVVISGSWDKTAKVWKEGSLVYNLQAHNASVWDAKVVSFSENKFLTASADKTIKLWQNDKVIKTFSGIHNDVVRHLAVVDDGHFISCSNDGLIKLVDMHTGDVLRTYEGHESFVYCIKLLPNGDIVSCGEDRTVRIWSKENGSLKQVITLPAISIWSVDCMSNGDIIVGSSDNLVRIFSQEKSRWASEDEINELSTQVEKSTISSKTIEFDESKLSPYEILQSPGRKEGQIVVVKSPQGTIEAHQFSNSSWKKVGDVVGAGATGNDKKIEFEGKTYDYVFDVDIEDGKPPLKLPINVSDNPYTAADNFLARYELPMSYRDQVVQFILKNTNGISLDQPNDNASSSAVSPSKTSVMKVLPVKQYLIMENYNPDTIFNGIVKINSNEKTFDDEILAQIGGALHDIDESWELLLSFANTIRSNWEIKTPAYDIVRLIVKKLPYSSDIKDYIEEGLGNKNITLTMLTVRILVNCFNNENWGVKLLESNQVYKSIFETIDTEFSQASAKQSQNLAIAVSTLIFNYSALVTKGNSDLELLPIVADAINTKYGPLEEYQECEEAAYRLTVAYGNLATVEPTLRQFANSVTWLANIKRSYGNVPRFKDIFDDLS

binding [3]: binds
B3: HF-Doa1 PFU domain (truncated version) (domain or fragment, UniProt P36037 352-449)
chain: AHQFSNSSWKKVGDVVGAGATGNDKKIEFEGKTYDYVFDVDIEDGKPPLKLPINVSDNPYTAADNFLARYELPMSYRDQVVQFILKNTNGISLDQPND

binding [1]: binds
binding [4]: no binding (only with 1% Triton X-100)
B4: HA-Wss1 (recombinant, wild type) (enzyme, UniProt P38838 1-269)
chain: MKTEGIKSPSAKYHDMAGSQRIPHKNPHIQKVAVLQSKPNKEDALNLIKEIAHKVSYLMKENHFKVTNLVEFYPRDQRLLGMNVNHGSKIMLRLRCSTDEFQFLPMECIMGTMLHELTHNLFGPHDKKFYNKLDELIGRQWVIEQRGLYDTFLGNGQRLGGRANLRSNRYPMTGISTNTGIVRKRGKGVKLGSLHPEGISSIDRGNSPRELAAFAAERRYRDDRWCGETKNNKDQIISDNISSSLEVVILDDDDEVLPGDTLIEVIDLT

binding [1]: binds
B5: HA-Wss1 WLM* (HE115,116NK) (enzyme, UniProt P38838 1-269)
chain: B4 chain with H115N, E116K

binding [1]: binds
B6: HA-Wss1 SIM1* (VV247,248AA) (enzyme, UniProt P38838 1-269)
chain: B4 chain with V247A, V248A

binding [1]: binds
B7: HA-Wss1 189–269 (C-terminal fragment, bearing the VIM and SIMs) (domain or fragment, UniProt P38838 189-269)
chain: VKLGSLHPEGISSIDRGNSPRELAAFAAERRYRDDRWCGETKNNKDQIISDNISSSLEVVILDDDDEVLPGDTLIEVIDLT
